Binding data for three molecules are collected here from PMC10229617 (Nature Communications, 2023).

Chains of the proteins cited; added tags and fusions are not shown. Lines headed by an entry give the natural chain unless they say otherwise; changes in a name come on top. A line that says so, or that is headed by a name, gives the form on record, which may keep a tag or linker. Residues count along the entry.
UniProt P25156: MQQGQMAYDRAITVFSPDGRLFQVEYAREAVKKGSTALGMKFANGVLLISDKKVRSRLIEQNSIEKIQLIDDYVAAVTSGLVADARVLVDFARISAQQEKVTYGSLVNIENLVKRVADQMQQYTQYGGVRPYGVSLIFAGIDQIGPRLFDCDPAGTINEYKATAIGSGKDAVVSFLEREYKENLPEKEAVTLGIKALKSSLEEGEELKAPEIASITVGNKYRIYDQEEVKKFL
DJ-1ΔN (DJ-1 lacking the seven residues 4KRALVIL10 of the N-terminal motif) (Q99497, form named): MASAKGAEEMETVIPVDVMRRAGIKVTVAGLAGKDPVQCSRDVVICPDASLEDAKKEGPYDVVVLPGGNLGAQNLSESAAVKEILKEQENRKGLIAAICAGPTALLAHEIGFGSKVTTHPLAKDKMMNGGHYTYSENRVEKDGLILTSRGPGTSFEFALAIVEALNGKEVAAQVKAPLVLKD
UniProt O75828, residues 5-277: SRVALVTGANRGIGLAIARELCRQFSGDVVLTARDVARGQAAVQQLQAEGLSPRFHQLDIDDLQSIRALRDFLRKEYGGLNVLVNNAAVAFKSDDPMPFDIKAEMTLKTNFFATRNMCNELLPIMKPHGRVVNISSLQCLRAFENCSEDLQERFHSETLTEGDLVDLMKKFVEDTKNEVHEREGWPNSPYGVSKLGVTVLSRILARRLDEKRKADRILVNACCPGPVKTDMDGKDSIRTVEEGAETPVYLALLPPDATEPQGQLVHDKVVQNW

In test [1] the target is T. acidophilum 20S proteasome α-ring (α7), tag cleaved (Thermoplasma acidophilum) (UniProt P25156). The test can be described thus: native MS; 0.3 µM archaeal 20S assembly mixture with 25 µM CBR3, 150 mM ammonium acetate pH 7.5, ~5 h on ice; each assembly isolated and dissociated by MS/MS (HCD 150 V); both purified.
In test [2] the target is T. acidophilum fully assembled 20S proteasome (α7β7β7α7) (Thermoplasma acidophilum) (UniProt P25156+P28061). Described as above.
For test [3], the target named is T. acidophilum unprocessed half proteasome (α7β7) containing the β-subunit propeptides (Thermoplasma acidophilum) (UniProt P25156+P28061). The description is as above.
The target of test [4] is T. acidophilum 20S proteasome α-subunit, His tagged (α7 ring) (Thermoplasma acidophilum) (UniProt P25156). The experiment in a line: pull-down; 50 µM CBR3 with 2 µM His tagged non-assembled α- or β-subunit, 25 mM HEPES pH 7.5, 1 h on ice; loaded on HisTrap FF, eluted with 300 mM imidazole; fractions blotted for CBR3 and His tag; both purified.
Test [5] has as its target T1, T. acidophilum 20S proteasome β-subunit, His tagged, non-assembled (Thermoplasma acidophilum) (UniProt P28061).
T1 sequence: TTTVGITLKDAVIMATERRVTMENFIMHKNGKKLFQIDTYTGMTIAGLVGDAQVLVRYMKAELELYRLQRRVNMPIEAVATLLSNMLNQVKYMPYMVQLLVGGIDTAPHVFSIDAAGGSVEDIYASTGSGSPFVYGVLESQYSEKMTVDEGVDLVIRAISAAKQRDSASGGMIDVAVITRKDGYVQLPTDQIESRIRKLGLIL
The test is described as above.

For test [6], the target named is DJ-1ΔN (DJ-1 lacking the seven residues 4KRALVIL10 of the N-terminal motif) (human) (UniProt Q99497). The test can be described thus: native MS; 20 µM protein in 500 mM ammonium acetate pH 7.5; Q-Exactive Plus Orbitrap EMR; both purified.
Test [7] addresses T. acidophilum 20S proteasome α-ring (α7), tag cleaved (Thermoplasma acidophilum) (UniProt P25156). The experiment in a line: native MS; MS spectrum of the archaeal α/β assembly mixture (assembled without the 60 °C step), 150 mM ammonium acetate pH 7.5; both purified.

These are yes or no findings as the source states them, for the method shown. Some binding calls cover weakened binding; strength is not graded here. For some of these results: Sequences can lack the tags named with a protein.

Regarding “CBR3 (carbonyl reductase 3), human, purified recombinant (from UniProt O75828 5-277) (enzyme)”, the binding result in test [1] is reported as “no binding (tested: 25 µM CBR3, 0.3 µM 20S)”; in test [2], “binds”; in test [3], “no binding (tested: 25 µM CBR3, 0.3 µM 20S)”; in test [4], “no binding (tested: 50 µM CBR3, 2 µM subunit)”; in test [5] it was “no binding (tested: 50 µM CBR3, 2 µM subunit)”.

For the molecule “DJ-1ΔN (DJ-1 lacking the seven residues 4KRALVIL10 of the N-terminal motif) (from UniProt Q99497 1-189)”, the binding entry in test [6] is listed as “no binding (tested: 20 µM)”.

B1: T. acidophilum 20S proteasome β-subunit, tag cleaved, as mixed with the α-subunit for assembly (protein, UniProt P28061 9-211)
chain: TTTVGITLKDAVIMATERRVTMENFIMHKNGKKLFQIDTYTGMTIAGLVGDAQVLVRYMKAELELYRLQRRVNMPIEAVATLLSNMLNQVKYMPYMVQLLVGGIDTAPHVFSIDAAGGSVEDIYASTGSGSPFVYGVLESQYSEKMTVDEGVDLVIRAISAAKQRDSASGGMIDVAVITRKDGYVQLPTDQIESRIRKLGLIL
On to B1, for which, in test [7], the binding result is given as “binds”.
